# This is one part of the list. Further columns of the screen follow, without active or inactive calls. The list favours compounds with an active or inconclusive main result. Potencies come from curve fits of mixed quality, noted in brackets.
# Assay: qHTS Assay for Modulators of Lamin A Splicing
# Details: HeLa LMNA splicing GFP/RFP minigene ratio, 48 h
# Summary of the method: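 Read-out is the ratio of GFP to DsRed2 object intensity, acquired by 488 nm laser-scanning cytometry on HeLa lamin A-EGFP minigene reporter cells. Compound incubation 48 hrs at 37 °C in Opti-MEM with 2% FBS; DMSO 0.5% final.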
# [1] = measured here: RFP viability control channel
# [2] = measured here: GFP splicing reporter channel
SMILES,AC50 [1],AC50 [2]
CCS(=O)(=O)Nc1ccc(C2=NN(S(C)(=O)=O)C(c3cccs3)C2)cc1 (configuration not stated),"0.708 µM [rising, full curve]",–
CC(=O)N1CCc2cc(S(=O)(=O)CCC(=O)NCc3ccc(Cl)cc3)ccc21,"0.00891 µM [falling, full curve]","20 µM [falling, partial curve]"
Cc1cccc(NC(=O)C(=O)NCC(c2ccc3c(c2)OCO3)N2CCN(C)CC2)c1C (configuration not stated),"0.447 µM [falling, partial curve, poor fit]",–
COc1ccc(C(=O)/C=C/c2ccc(OC)c(O)c2)c(F)c1,"3.16 µM [falling, partial curve]","8.91 µM [falling, partial curve, poor fit]"
CCOc1ccccc1N=C1SC(CC(=O)Nc2ccc(OC)cc2OC)C(=O)N1CCC1=CCCCC1 (configuration not stated),"25.1 µM [rising, single point]","14.1 µM [rising, single point]"
CC[C@]1(O)C[C@H]2CN(CCc3c([nH]c4ccccc34)[C@@](C(=O)OC)(c3cc4c(cc3OC)N(C=O)[C@H]3[C@@](O)(C(=O)OC)[C@H](OC(C)=O)[C@]5(CC)C=CCN6CC[C@]43[C@@H]65)C2)C1,"0.00112 µM [rising, full curve, poor fit]","0.282 µM [rising, full curve]"
COc1ccccc1/C=C1\SC(=S)N(CC(=O)Nc2nnc(C)s2)C1=O,"17.8 µM [falling, partial curve, poor fit]",–
Cc1ccc(CNS(=O)(=O)NCc2cccs2)cc1,"4.47 µM [falling, single point]",–
COCCCNC(=O)c1oc2ccc(S(=O)(=O)N(C)C3CCCCC3)cc2c1C,"22.4 µM [rising, single point]",–
CCOC(=O)C1CC(c2ccc(Cl)cc2)=NNC1=O (configuration not stated),"0.141 µM [falling, full curve, poor fit]",–
Cc1cc(Nc2cccc(Cl)c2)nc2ccc(NC(=O)Cc3cccc(C(F)(F)F)c3)cc12,"10 µM [falling, partial curve]","10 µM [falling, partial curve]"
Cn1c(=O)n(C/C=C/c2ccccc2)c(=O)c2c1nc1n2CCCN1Cc1ccccc1,"20 µM [rising, single point]",–
C=CCNC(=O)C1CCN(c2ccc(S(=O)(=O)N3CCOCC3)cc2[N+](=O)[O-])CC1,"0.00398 µM [rising, full curve, poor fit]",–
COc1cc2cc(CN(Cc3cccs3)C(=S)Nc3ccc(C)cc3)c(=O)[nH]c2cc1OC,"3.98 µM [rising, partial curve]","3.98 µM [rising, partial curve, poor fit]"
N#CC1=C(N)Oc2ccc3ccc(O)cc3c2C1c1cccnc1 (configuration not stated),"5.62 µM [rising, partial curve]",–
Cc1ccc(-c2nc(C3CCCN(S(=O)(=O)c4ccc(C)cc4)C3)no2)cc1 (configuration not stated),"12.6 µM [rising, single point]",–
Cc1ccc(Nc2ncccc2C(=O)O)cc1C,"10 µM [rising, partial curve]","2 µM [rising, partial curve]"

SMILES,AC50 [1],AC50 [2]
COc1cc(OC)c(C(=O)OC(C)C(=O)Nc2cccc(C(F)(F)F)c2)cc1OC (configuration not stated),"14.1 µM [rising, single point]","10 µM [rising, single point]"
CCCOc1ccc(NC(=O)CC2C(=O)N(C)C(=S)N2Cc2ccc3c(c2)OCO3)cc1 (configuration not stated),"35.5 µM [rising, single point]",–
CCc1ccccc1NC(=O)C1=C(C)C(=O)OC12CCCCCC2,–,"35.5 µM [rising, single point]"
CC(O)C(NS(=O)(=O)c1ccc(Cl)cc1)C(=O)OCC(=O)c1c[nH]c2ccccc12 (configuration not stated),"17.8 µM [falling, partial curve, poor fit]","10 µM [falling, single point]"
CNc1ccc(Br)cc(C(=O)/C=C/c2ccc(Cl)cc2Cl)c1=O,–,"14.1 µM [falling, single point]"
CCOC(=O)N/N=C/c1cn(Cc2ccccc2Cl)c2ccccc12,"11.2 µM [rising, partial curve]","3.55 µM [rising, full curve]"
COC(=O)c1ccccc1NC(=O)N1CCc2c(sc3c2CCCC3)C1c1ccc(F)cc1 (configuration not stated),"1.26 µM [rising, partial curve]",–
O=C(COc1ccccc1)NC1CC(=O)N(c2ccc3c(c2)OCCO3)C1 (configuration not stated),"0.00316 µM [falling, full curve, poor fit]",–
Cc1cc(C)c(C)c(S(=O)(=O)NCCCN2CCOCC2)c1C,–,"0.282 µM [rising, full curve, poor fit]"
C=CCN=c1scc(-c2ccc3c(c2)NC(=O)CO3)n1/N=C(\C)c1ccccn1,"5.62 µM [rising, partial curve]",–
CCOc1cccc2c1OC(c1cc(OC)c(OC)c(OC)c1)N1N=C(c3ccc(C)o3)CC21 (configuration not stated),"12.6 µM [rising, single point]",–
COC(=O)CSC1=C(C#N)C(c2ccccc2OC)C(C(=O)OC)C(=O)N1 (configuration not stated),"0.0282 µM [falling, full curve, poor fit]",–
COc1ccc(C(=O)C2CCCN(C(=O)c3cccnc3SC)C2)c(C)c1 (configuration not stated),"35.5 µM [falling, single point]","35.5 µM [falling, single point]"
CCOC(=O)c1sc(NC(=O)CSc2nnc(C(C)C)n2CC)nc1C,–,"12.6 µM [rising, single point]"
O=C(c1ccc(Cl)cc1)C1CCCN(Cc2cccn2-c2ccccn2)C1 (configuration not stated),–,"1 µM [falling, full curve]"
O=C(CCCCCCCC(=O)c1ccccc1)c1ccccc1,"0.0398 µM [falling, full curve, poor fit]","22.4 µM [falling, single point]"
COc1cc(S(=O)(=O)N2CCN(Cc3ccc4c(c3)OCO4)CC2)c(C)cc1C,"35.5 µM [rising, single point]","35.5 µM [rising, single point]"

# Looked up by structure from above:
SMILES,AC50 [1],AC50 [2]
O=C(COc1ccccc1)NC1CC(=O)N(c2ccc3c(c2)OCCO3)C1 (configuration not stated),"0.00316 µM [falling, full curve, poor fit]",–
C=CCN=c1scc(-c2ccc3c(c2)NC(=O)CO3)n1/N=C(\C)c1ccccn1,"5.62 µM [rising, partial curve]",–
CCOC(=O)N/N=C/c1cn(Cc2ccccc2Cl)c2ccccc12,"11.2 µM [rising, partial curve]","3.55 µM [rising, full curve]"

# From PubChem BioAssay AID1487 (National Center for Advancing Translational Sciences (NCATS), 2009)
